{"source": "the supplement of paper PMC4683952", "note": "Counter-ions that a name gives are not always drawn. The list shows a part of the results. No stated cut-off is given here; in the data, active = 2.5 or more and inactive = the rest. Most values lie within the scatter of the assay; repeated measurements hardly agree."}
{"system": "Lgr5 (MarsCy1-Lgr5-EGFP, U2OS)", "experiment": "cell-surface Lgr5 expression (SCi1 fluorescence, background-subtracted) relative to WT control (fold of WT control); higher = more Lgr5 at the plasma membrane", "conditions": "U2OS MarsCy1-Lgr5-EGFP stable; treatment time: overnight; library: Prestwick; 20 µM"}
{"smiles": "CC1(C)S[C@@H]2[C@H](NC(=O)[C@H](N)c3ccc(O)cc3)C(=O)N2[C@H]1C(=O)O", "note": "[Amoxicillin]", "cell-surface Lgr5 expression": "inactive: 1.59"}
{"smiles": "CN[C@@H]1[C@H](O[C@H]2[C@H](O[C@H]3[C@H](O)[C@@H](O)[C@H](N=C(N)N)[C@@H](O)[C@@H]3N=C(N)N)O[C@@H](C)[C@]2(O)C=O)O[C@@H](CO)[C@H](O)[C@H]1O", "note": "[Streptomycin sulfate]", "cell-surface Lgr5 expression": "inactive: 1.98"}
{"smiles": "Fc1ccc(C(c2ccc(F)cc2)N2CCN(C/C=C/c3ccccc3)CC2)cc1", "note": "[Flunarizine dihydrochloride]", "cell-surface Lgr5 expression": "inactive: 1.28"}
{"smiles": "CC(=O)Nc1cc2ccccc2oc1=O", "note": "[3-Acetamidocoumarin]", "cell-surface Lgr5 expression": "inactive: 0.837"}
{"smiles": "N=C(N)c1ccc(OCCCCCOc2ccc(C(=N)N)cc2)cc1", "note": "[Pentamidine isethionate]", "cell-surface Lgr5 expression": "inactive: 1.74"}
{"smiles": "CN1C(C)(C)CCCC1(C)C", "note": "[Pempidine tartrate]", "cell-surface Lgr5 expression": "inactive: 1.18"}
{"smiles": "Cc1onc(-c2c(Cl)cccc2Cl)c1C(=O)N[C@@H]1C(=O)N2[C@@H]1SC(C)(C)[C@@H]2C(=O)O", "note": "[Dicloxacillin sodium salt]", "cell-surface Lgr5 expression": "inactive: 0.0712"}
{"smiles": "CN(C)/N=N/c1[nH]cnc1C(N)=O", "note": "[Dacarbazine]", "cell-surface Lgr5 expression": "active: 3.38"}
{"smiles": "CC[N+](C)(C)Cc1ccccc1Br", "note": "[Bretylium tosylate]", "cell-surface Lgr5 expression": "inactive: 1.63"}
{"smiles": "C[N+](C)(C)CCCCCC[N+](C)(C)C", "note": "[Hexamethonium dibromide dihydrate]", "cell-surface Lgr5 expression": "inactive: 1.32"}
{"smiles": "O=C(O)c1cccnc1Nc1cccc(C(F)(F)F)c1", "note": "[Niflumic acid]", "cell-surface Lgr5 expression": "inactive: 1.26"}
{"smiles": "Cc1oncc1C(=O)Nc1ccc(C(F)(F)F)cc1", "note": "[Leflunomide]", "cell-surface Lgr5 expression": "inactive: 1.85"}
{"smiles": "COc1ccc(C(Cl)=C(c2ccc(OC)cc2)c2ccc(OC)cc2)cc1", "note": "[Chlorotrianisene]", "cell-surface Lgr5 expression": "inactive: 1.91"}
{"smiles": "CC(CCc1ccccc1)NCC(O)c1ccc(O)c(C(N)=O)c1", "note": "(stereo not given) [Labetalol hydrochloride]", "cell-surface Lgr5 expression": "inactive: -0.167"}
{"smiles": "COC(=O)Nc1nc2cc(C(=O)c3ccccc3)ccc2[nH]1", "note": "[Mebendazole]", "cell-surface Lgr5 expression": "inactive: 0.926"}
{"smiles": "CC1(C)S[C@@H]2[C@H](NC(=O)[C@H](NC(=O)N3CCNC3=O)c3ccccc3)C(=O)N2[C@H]1C(=O)O", "note": "[Azlocillin sodium salt]", "cell-surface Lgr5 expression": "inactive: 2.49"}
{"smiles": "Cc1cc2c(cc1S(N)(=O)=O)S(=O)(=O)CCC2", "note": "[Meticrane]", "cell-surface Lgr5 expression": "inactive: 1.3"}
{"smiles": "Clc1cnccn1", "note": "[2-Chloropyrazine]", "cell-surface Lgr5 expression": "inactive: 1.04"}
{"smiles": "C[C@]1(OC(=O)/C=C/c2ccccc2)C[C@@H](O)[C@]2(O)C=CO[C@@H](O[C@@H]3O[C@H](CO)[C@@H](O)[C@H](O)[C@H]3O)[C@@H]21", "note": "[Harpagoside]", "cell-surface Lgr5 expression": "inactive: 0.695"}
{"smiles": "COC(=O)[C@H]1[C@H]2C[C@H]3c4[nH]c5ccccc5c4CCN3C[C@@H]2CC[C@@H]1O", "note": "[Corynanthine hydrochloride]", "cell-surface Lgr5 expression": "inactive: 2.36"}
{"smiles": "CSc1ccc2c(c1)C(N1CCN(C)CC1)Cc1ccccc1S2", "note": "(stereo not given) [Methiothepin maleate]", "cell-surface Lgr5 expression": "inactive: 1.65"}
{"smiles": "Cc1cc(C(C)(C)C)c(O)c(C)c1CC1=NCCN1", "note": "[Oxymetazoline hydrochloride]", "cell-surface Lgr5 expression": "inactive: 1.21"}
{"smiles": "CN(C)CCCN1c2ccccc2Sc2ccccc21", "note": "[Promazine hydrochloride]", "cell-surface Lgr5 expression": "inactive: 1.99"}
{"smiles": "NS(=O)(=O)c1cc(C(=O)O)cc(N2CCCC2)c1Oc1ccccc1", "note": "[Piretanide]", "cell-surface Lgr5 expression": "inactive: 1.18"}
{"smiles": "C[N+]1(C)C[C@H](O)C[C@H]1C(=O)[O-]", "note": "[Betonicine]", "cell-surface Lgr5 expression": "inactive: 2.06"}
{"smiles": "COc1ccc([C@@H]2CC(=O)c3c(O)cc(O[C@@H]4O[C@H](CO[C@@H]5O[C@@H](C)[C@H](O)[C@@H](O)[C@H]5O)[C@@H](O)[C@H](O)[C@H]4O)cc3O2)cc1O", "note": "[Hesperidin]", "cell-surface Lgr5 expression": "inactive: 1.07"}
{"smiles": "CCN(CC)C(=S)SSC(=S)N(CC)CC", "note": "[Disulfiram]", "cell-surface Lgr5 expression": "inactive: 0.755"}
{"smiles": "C/C(=C(\\CCOP(=O)(O)O)SC(=O)c1ccccc1)N(C=O)Cc1cnc(C)nc1N", "note": "[Benfotiamine]", "cell-surface Lgr5 expression": "active: 3.35"}
{"smiles": "O=c1cc(-c2ccccc2)oc2cc(O)cc(O)c12", "note": "[Chrysin]", "cell-surface Lgr5 expression": "inactive: 1.06"}
{"smiles": "C[C@]12C[C@H](O)[C@H]3[C@@H](CCC4=CC(=O)CC[C@@]43C)[C@@H]1CC[C@@H]2C(=O)CO", "note": "[Corticosterone]", "cell-surface Lgr5 expression": "inactive: 2.49"}
{"smiles": "O=C1CN(/N=C/c2ccc(-c3ccc([N+](=O)[O-])cc3)o2)C(=O)N1", "note": "[Dantrolene sodium salt]", "cell-surface Lgr5 expression": "inactive: 1.18"}
{"smiles": "CCOC(=O)n1ccn(C)c1=S", "note": "[Carbimazole]", "cell-surface Lgr5 expression": "active: 2.69"}
{"smiles": "CC1(C)S[C@@H]2[C@H](NC(=O)[C@H](C(=O)O)c3ccsc3)C(=O)N2[C@H]1C(=O)O", "note": "[Ticarcillin sodium]", "cell-surface Lgr5 expression": "inactive: 1.13"}
{"smiles": "Cc1cc(NS(=O)(=O)c2ccc(N)cc2)no1", "note": "[Sulfamethoxazole]", "cell-surface Lgr5 expression": "inactive: 2.1"}
{"smiles": "CN[C@@H]1[C@@H](O)[C@@H](O[C@@H]2[C@@H](O)[C@H](O[C@H]3OC(CN)=CC[C@H]3N)[C@@H](N)C[C@H]2N)OC[C@]1(C)O", "note": "[Sisomicin sulfate]", "cell-surface Lgr5 expression": "inactive: 1.83"}
{"smiles": "Cc1ccccc1OCC(O)CO", "note": "(stereo not given) [Mephenesin]", "cell-surface Lgr5 expression": "inactive: 1.83"}
{"smiles": "O=C1CN(/N=C/c2ccc([N+](=O)[O-])o2)C(=O)N1", "note": "[Nitrofurantoin]", "cell-surface Lgr5 expression": "inactive: 0.807"}
{"smiles": "C[C@H](N)[C@H](O)c1cccc(O)c1", "note": "[Metaraminol bitartrate]", "cell-surface Lgr5 expression": "inactive: 1.49"}
{"smiles": "CCN(CC)CCOC(=O)C(Cc1cccc2ccccc12)CC1CCCO1", "note": "(stereo not given) [Nafronyl oxalate]", "cell-surface Lgr5 expression": "inactive: 1.08"}
{"smiles": "CC(C(=O)O)c1cccc(C(=O)c2ccccc2)c1", "note": "(stereo not given) [Ketoprofen]", "cell-surface Lgr5 expression": "inactive: 1.4"}
{"smiles": "CCCC1O[C@@H]2C[C@H]3[C@@H]4CCC5=CC(=O)C=C[C@]5(C)[C@H]4[C@@H](O)C[C@]3(C)[C@]2(C(=O)CO)O1", "note": "(stereo not given in full) [Budesonide]", "cell-surface Lgr5 expression": "active: 3.98"}
{"smiles": "COc1ncnc(NS(=O)(=O)c2ccc(N)cc2)c1OC", "note": "[Sulfadoxine]", "cell-surface Lgr5 expression": "inactive: 1.34"}
{"smiles": "CC(=O)OCC(=O)[C@@]1(O)[C@H](C)C[C@H]2[C@@H]3CCC4=CC(=O)C=C[C@]4(C)[C@@]3(F)[C@@H](O)C[C@@]21C", "note": "[Dexamethasone acetate]", "cell-surface Lgr5 expression": "active: 2.75"}
{"smiles": "COc1ccc(C(=O)c2ccccc2)c(O)c1", "note": "[Oxybenzone]", "cell-surface Lgr5 expression": "inactive: 2"}
{"smiles": "Nc1nc2c(ncn2COCCO)c(=O)[nH]1", "note": "[Acyclovir]", "cell-surface Lgr5 expression": "inactive: 1.09"}
{"smiles": "CCCCCN(CCCCC)C(=O)C(CCC(=O)O)NC(=O)c1ccc(Cl)c(Cl)c1", "note": "(stereo not given) [Lorglumide sodium salt]", "cell-surface Lgr5 expression": "inactive: 0.614"}
{"smiles": "CC(C)(C)NC(=O)[C@@H]1C[C@@H]2CCCC[C@@H]2CN1C[C@@H](O)[C@H](Cc1ccccc1)NC(=O)[C@H](CC(N)=O)NC(=O)c1ccc2ccccc2n1", "note": "[Saquinavir mesylate]", "cell-surface Lgr5 expression": "inactive: 1.57"}
{"smiles": "CCCCN(CCCC)CCC(O)c1cc2c(Cl)cc(Cl)cc2c2cc(C(F)(F)F)ccc12", "note": "(stereo not given) [Halofantrine hydrochloride]", "cell-surface Lgr5 expression": "inactive: 0.889"}
{"smiles": "CCOc1cc(CC(=O)N[C@@H](CC(C)C)c2ccccc2N2CCCCC2)ccc1C(=O)O", "note": "[Repaglinide]", "cell-surface Lgr5 expression": "inactive: 1.13"}
{"smiles": "C[C@]12C=CC(=O)C=C1CC[C@H]1[C@@H]3C[C@@H](O)[C@](O)(C(=O)CO)[C@@]3(C)C[C@H](O)[C@@]12F", "note": "[Triamcinolone]", "cell-surface Lgr5 expression": "inactive: 2.44"}
{"smiles": "CC1(C)O[C@@H]2C[C@H]3[C@@H]4CCC5=CC(=O)CC[C@]5(C)[C@@]4(F)[C@@H](O)C[C@]3(C)[C@]2(C(=O)CCl)O1", "note": "[Halcinonide]", "cell-surface Lgr5 expression": "active: 3.81"}
{"smiles": "C[C@@H](O)[C@H]1C(=O)N2C(C(=O)O)=C(S[C@@H]3CN[C@H](C(=O)N(C)C)C3)[C@H](C)[C@H]12", "note": "[Meropenem]", "cell-surface Lgr5 expression": "inactive: 1.23"}
{"smiles": "O=C(O)[C@H](O)[C@@H](O)[C@H](O[C@@H]1O[C@H](CO)[C@H](O)[C@H](O)[C@H]1O)[C@H](O)CO", "note": "[Lactobionic acid]", "cell-surface Lgr5 expression": "inactive: 0.361"}
{"smiles": "C[C@@H]1C[C@H]2[C@@H]3C[C@H](F)C4=CC(=O)C=C[C@]4(C)[C@@]3(Cl)[C@@H](O)C[C@]2(C)[C@H]1C(=O)COC(=O)C(C)(C)C", "note": "[Clocortolone pivalate]", "cell-surface Lgr5 expression": "inactive: 2.1"}
{"smiles": "OC(c1cc(C(F)(F)F)nc2c(C(F)(F)F)cccc12)C1CCCCN1", "note": "(stereo not given) [Mefloquine hydrochloride]", "cell-surface Lgr5 expression": "inactive: 0.205"}
{"smiles": "CNCCCC12CCC(c3ccccc31)c1ccccc12", "note": "[Maprotiline hydrochloride]", "cell-surface Lgr5 expression": "inactive: 1.54"}
{"smiles": "CN(C)CCCSC(=N)N", "note": "[Dimaprit dihydrochloride]", "cell-surface Lgr5 expression": "inactive: 1.11"}
{"smiles": "Cc1onc(-c2c(F)cccc2Cl)c1C(=O)N[C@@H]1C(=O)N2[C@@H]1SC(C)(C)[C@@H]2C(=O)O", "note": "[Flucloxacillin sodium]", "cell-surface Lgr5 expression": "inactive: 0.718"}
{"smiles": "COc1c(C)c2c(c(O)c1C/C=C(\\C)CCC(=O)O)C(=O)OC2", "note": "[Mycophenolic acid]", "cell-surface Lgr5 expression": "inactive: 1.1"}
{"smiles": "CC(=O)NC(CC(=O)O)C(=O)O", "note": "(racemic) [Aspartic acid, N-acetyl (R,S)]", "cell-surface Lgr5 expression": "inactive: 1.19"}
{"smiles": "NS(=O)(=O)c1cc(Cl)c(Cl)c(S(N)(=O)=O)c1", "note": "[Dichlorphenamide]", "cell-surface Lgr5 expression": "inactive: 1.52"}
{"smiles": "CCN1CCCC(OC(=O)C(c2ccccc2)c2ccccc2)C1", "note": "(stereo not given) [Piperidolate hydrochloride]", "cell-surface Lgr5 expression": "inactive: 1.28"}
{"smiles": "CC(C)NC[C@H](O)COc1cccc2ccccc12", "note": "[(S)-propranolol hydrochloride]", "cell-surface Lgr5 expression": "inactive: 1.08"}
{"smiles": "CC(=O)CCCCn1c(=O)c2c(ncn2C)n(C)c1=O", "note": "[Pentoxifylline]", "cell-surface Lgr5 expression": "inactive: 2.43"}
{"smiles": "CN1C(=O)OC(C)(C)C1=O", "note": "[Trimethadione]", "cell-surface Lgr5 expression": "inactive: 1.84"}
